{"source": "PubChem BioAssay AID1053208 (Peter MacCallum Cancer Centre, 2014)", "purpose": "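Synthetic lethal interactions between gene loss and doxorubicin in osteosarcoma cells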 (primary screen)", "cells": "mouse osteosarcoma cells, early-passage culture from an engineered mouse model of fibroblastic bone tumour", "reagent": "siRNA pool against mouse genes, 40 nM", "duration": "about 120 h (48 h before drug, then 72 h with drug)", "treatment": "doxorubicin 100 nM for 72 h, roughly 30-40% inhibitory dose", "measured": "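Viability read as ATP luminescence after 72 h of 100 nM doxorubicin or none, duplicate wells averaged, scaled to non-targeting siRNA, then expressed as robust z-scores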", "direction": "viability z-score with doxorubicin: higher = more viable cells under doxorubicin; viability z-score without drug: higher = more viable cells with knock-down alone", "hit rule": "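Called active if knock-down leaves viability unchanged without drug (z within -2 to 2) but lowers it with doxorubicin (z at or under -2)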", "note": "Shown is one part, drawn at random, of about 17,000 reagents tested. In the full data, 788 (4.7%) are marked active. 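Calls rest on z-score classes alone; an extra cut-off of viability at most 70% of control was not applied to them.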 Further read-outs or replicates are left out here. Reagent sequences are not shown."}
{"gene knocked down": "Cdip1", "combined z-score class": "no change with or without drug", "viability z-score with doxorubicin": 0.67, "viability z-score without drug": -0.17, "call": "inactive"}
{"gene knocked down": "Dock11", "combined z-score class": "no change with or without drug", "viability z-score with doxorubicin": -1.57, "viability z-score without drug": -0.17, "call": "inactive"}
{"gene knocked down": "Mterf1b", "combined z-score class": "no change with or without drug", "viability z-score with doxorubicin": -0.22, "viability z-score without drug": 0.51, "call": "inactive"}
{"gene knocked down": "Hcrt", "combined z-score class": "no change with or without drug", "viability z-score with doxorubicin": -0.34, "viability z-score without drug": -0.84, "call": "inactive"}
{"gene knocked down": "Tstd2", "combined z-score class": "no change with or without drug", "viability z-score with doxorubicin": 0.45, "viability z-score without drug": -1.85, "call": "inactive"}
{"gene knocked down": "Eps8", "combined z-score class": "no change with or without drug", "viability z-score with doxorubicin": -0.9, "viability z-score without drug": 0, "call": "inactive"}
{"gene knocked down": "Tbc1d8", "combined z-score class": "no change with or without drug", "viability z-score with doxorubicin": 1.69, "viability z-score without drug": 0.34, "call": "inactive"}
{"gene knocked down": "Flrt1", "combined z-score class": "no change with or without drug", "viability z-score with doxorubicin": 0.67, "viability z-score without drug": 0.67, "call": "inactive"}
{"gene knocked down": "Or2q1", "combined z-score class": "no change with or without drug", "viability z-score with doxorubicin": -1.91, "viability z-score without drug": -1.18, "call": "inactive"}

2 of these entries, reformatted.
| gene knocked down | combined z-score class | viability z-score with doxorubicin | viability z-score without drug | call |
| --- | --- | --- | --- | --- |
| Mterf1b | no change with or without drug | -0.22 | 0.51 | inactive |
| Hcrt | no change with or without drug | -0.34 | -0.84 | inactive |

Additional records follow.
{"gene knocked down": "Tle4", "combined z-score class": "no change with or without drug", "viability z-score with doxorubicin": 0.22, "viability z-score without drug": 0.17, "call": "inactive"}
{"gene knocked down": "Atp5mf", "combined z-score class": "no change with or without drug", "viability z-score with doxorubicin": 0.45, "viability z-score without drug": 0.17, "call": "inactive"}
{"gene knocked down": "Rfx5", "combined z-score class": "no change with or without drug", "viability z-score with doxorubicin": -0.22, "viability z-score without drug": -0.51, "call": "inactive"}
{"gene knocked down": "Tmco6", "combined z-score class": "low cell count without drug only", "viability z-score with doxorubicin": 0.67, "viability z-score without drug": -7.25, "call": "inactive"}
{"gene knocked down": "Pip5k1a", "combined z-score class": "no change with or without drug", "viability z-score with doxorubicin": -0.11, "viability z-score without drug": 0.51, "call": "inactive"}
{"gene knocked down": "Fabp2", "combined z-score class": "no change with or without drug", "viability z-score with doxorubicin": 1.57, "viability z-score without drug": 1.18, "call": "inactive"}
{"gene knocked down": "Sct", "combined z-score class": "no change with or without drug", "viability z-score with doxorubicin": 0.67, "viability z-score without drug": 0.34, "call": "inactive"}
{"gene knocked down": "Tmem169", "combined z-score class": "no change with or without drug", "viability z-score with doxorubicin": 1.35, "viability z-score without drug": 0.84, "call": "inactive"}
{"gene knocked down": "Ank", "combined z-score class": "no change with or without drug", "viability z-score with doxorubicin": 0, "viability z-score without drug": -1.85, "call": "inactive"}
{"gene knocked down": "Sirt2", "combined z-score class": "no change with or without drug", "viability z-score with doxorubicin": 1.24, "viability z-score without drug": 0.84, "call": "inactive"}
{"gene knocked down": "Galnt17", "combined z-score class": "no change with or without drug", "viability z-score with doxorubicin": 0, "viability z-score without drug": -0.67, "call": "inactive"}
{"gene knocked down": "G3bp2", "combined z-score class": "no change with or without drug", "viability z-score with doxorubicin": -1.12, "viability z-score without drug": 0.34, "call": "inactive"}
{"gene knocked down": "Lmcd1", "combined z-score class": "no change with or without drug", "viability z-score with doxorubicin": 1.24, "viability z-score without drug": 0.84, "call": "inactive"}
{"gene knocked down": "Cd69", "combined z-score class": "no change with or without drug", "viability z-score with doxorubicin": 0.9, "viability z-score without drug": 0.84, "call": "inactive"}
{"gene knocked down": "Ino80e", "combined z-score class": "no change with or without drug", "viability z-score with doxorubicin": -1.57, "viability z-score without drug": 0.51, "call": "inactive"}
{"gene knocked down": "Or6c206", "combined z-score class": "high cell count without drug only", "viability z-score with doxorubicin": 0.45, "viability z-score without drug": 2.19, "call": "inactive"}
{"gene knocked down": "Ppfibp2", "combined z-score class": "no change with or without drug", "viability z-score with doxorubicin": -0.9, "viability z-score without drug": -0.84, "call": "inactive"}
{"gene knocked down": "Dpysl3", "combined z-score class": "no change with or without drug", "viability z-score with doxorubicin": -0.22, "viability z-score without drug": 0.51, "call": "inactive"}
{"gene knocked down": "Wnt10b", "combined z-score class": "no change with or without drug", "viability z-score with doxorubicin": -0.11, "viability z-score without drug": -0.34, "call": "inactive"}
